Test results from US20150065444A1.
These are yes or no findings as the source states them, for the method shown. Some entries that bind do so weakly or less than the wild type. For some of these results: Tags and fused reporters may be left off the sequences shown.

The chains behind the UniProt entries cited, without tags or fusion partners.
UniProt P12004: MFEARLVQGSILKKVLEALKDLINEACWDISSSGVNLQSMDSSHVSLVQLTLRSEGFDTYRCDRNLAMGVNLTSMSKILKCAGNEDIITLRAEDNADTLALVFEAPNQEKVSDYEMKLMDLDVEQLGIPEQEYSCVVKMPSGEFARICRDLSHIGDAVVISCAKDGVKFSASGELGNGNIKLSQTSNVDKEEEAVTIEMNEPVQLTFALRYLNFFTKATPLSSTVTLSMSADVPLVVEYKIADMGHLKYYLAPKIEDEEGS
UniProt Q9NS91: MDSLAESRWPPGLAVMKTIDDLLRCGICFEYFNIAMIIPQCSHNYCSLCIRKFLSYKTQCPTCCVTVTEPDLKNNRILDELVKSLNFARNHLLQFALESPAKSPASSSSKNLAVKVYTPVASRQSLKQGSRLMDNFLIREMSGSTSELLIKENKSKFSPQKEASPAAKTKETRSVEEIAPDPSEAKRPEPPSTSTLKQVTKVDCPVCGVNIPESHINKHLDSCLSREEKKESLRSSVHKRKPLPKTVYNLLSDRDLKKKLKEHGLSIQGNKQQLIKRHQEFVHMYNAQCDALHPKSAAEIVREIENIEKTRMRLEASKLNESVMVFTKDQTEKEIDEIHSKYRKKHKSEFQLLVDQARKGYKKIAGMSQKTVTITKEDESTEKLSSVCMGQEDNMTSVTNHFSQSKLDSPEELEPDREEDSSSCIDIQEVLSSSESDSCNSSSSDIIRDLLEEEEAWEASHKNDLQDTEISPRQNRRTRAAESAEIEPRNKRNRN

Experiments:
[1] = molecular target: Purified recombinant PCNA (UniProt P12004); assay: GST-Rad18 pull-down of purified proteins, immunoblot (FIG. 4c)
[2] = molecular target: T1, Purified recombinant 6x His-tagged Arm1 (human) (UniProt Q9H993); assay: as above
T1 sequence: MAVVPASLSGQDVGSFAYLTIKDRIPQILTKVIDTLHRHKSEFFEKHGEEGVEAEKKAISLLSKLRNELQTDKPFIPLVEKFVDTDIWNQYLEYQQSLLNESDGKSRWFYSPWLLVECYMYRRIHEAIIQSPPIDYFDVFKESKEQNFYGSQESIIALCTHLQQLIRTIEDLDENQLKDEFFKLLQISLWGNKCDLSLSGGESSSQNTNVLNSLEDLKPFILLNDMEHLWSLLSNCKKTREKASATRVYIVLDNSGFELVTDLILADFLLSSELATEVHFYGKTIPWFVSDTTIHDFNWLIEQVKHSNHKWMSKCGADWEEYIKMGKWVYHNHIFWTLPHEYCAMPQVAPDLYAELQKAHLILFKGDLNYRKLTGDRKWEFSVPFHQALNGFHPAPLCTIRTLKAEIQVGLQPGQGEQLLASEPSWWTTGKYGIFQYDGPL

[3] = molecular target: Purified recombinant PCNA (UniProt P12004); assay: recombinant PCNA incubated with or without recombinant Arm1, SAM or sinefungin, then glutathione Sepharose bound GST-Rad18; SDS-PAGE and immunoblot
[4] = molecular target: T1, Purified recombinant 6x His-tagged Arm1 (human); assay: as above

Measured: binding

GST-Rad18 (from UniProt Q9NS91 1-495)
binds: all assays above
